Assay results: PMC12177292

By UniProt entry, the sequences of proteins in these tests, tags left out. Where a name states a change or a piece, a line headed by the entry shows the natural chain unless it says otherwise.
UniProt Q9FMT4: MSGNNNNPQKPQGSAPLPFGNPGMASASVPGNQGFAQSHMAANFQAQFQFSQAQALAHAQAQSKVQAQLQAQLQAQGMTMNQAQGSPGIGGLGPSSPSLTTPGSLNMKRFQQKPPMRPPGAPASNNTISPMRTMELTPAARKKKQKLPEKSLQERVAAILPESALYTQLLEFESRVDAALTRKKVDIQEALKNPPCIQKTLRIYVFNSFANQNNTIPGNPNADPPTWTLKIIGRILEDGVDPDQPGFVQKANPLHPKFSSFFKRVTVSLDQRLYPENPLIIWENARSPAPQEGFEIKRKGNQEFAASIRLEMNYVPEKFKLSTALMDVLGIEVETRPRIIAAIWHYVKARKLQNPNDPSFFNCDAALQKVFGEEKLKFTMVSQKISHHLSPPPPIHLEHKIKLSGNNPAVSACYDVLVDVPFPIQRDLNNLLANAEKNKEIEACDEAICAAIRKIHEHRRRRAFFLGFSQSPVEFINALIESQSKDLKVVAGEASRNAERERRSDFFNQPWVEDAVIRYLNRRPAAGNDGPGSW
UniProt F4JBZ1: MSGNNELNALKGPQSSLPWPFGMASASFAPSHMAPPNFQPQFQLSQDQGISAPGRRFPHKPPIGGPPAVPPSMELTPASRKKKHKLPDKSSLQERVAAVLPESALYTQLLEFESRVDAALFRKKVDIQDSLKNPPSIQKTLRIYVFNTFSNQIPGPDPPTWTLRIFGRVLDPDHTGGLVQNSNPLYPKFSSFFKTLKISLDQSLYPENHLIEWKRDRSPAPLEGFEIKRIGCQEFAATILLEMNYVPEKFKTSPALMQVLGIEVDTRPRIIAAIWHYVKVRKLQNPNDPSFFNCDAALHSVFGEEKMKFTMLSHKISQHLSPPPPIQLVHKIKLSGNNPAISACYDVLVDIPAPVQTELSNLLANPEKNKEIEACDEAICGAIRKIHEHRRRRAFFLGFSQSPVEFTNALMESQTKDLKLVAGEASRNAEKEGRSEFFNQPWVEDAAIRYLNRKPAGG

How the values were obtained:
Test in all cases: affinity purification with mass spectrometry; YFPHA-tagged bait captured on GFP-Trap magnetic beads from extracts of 20 g transgenic plants; IP buffer 50 mM Tris-HCl pH 7.6, 150 mM NaCl, 5 mM MgCl2, 10% glycerol, 0.25% TritonX-100, 1 mM DTT, with Viscolase; LC-MS/MS, label-free quantification
[1] = biological target: T1, SWI3D-YFPHA (Arabidopsis thaliana) (UniProt Q8VY05)
T1 sequence: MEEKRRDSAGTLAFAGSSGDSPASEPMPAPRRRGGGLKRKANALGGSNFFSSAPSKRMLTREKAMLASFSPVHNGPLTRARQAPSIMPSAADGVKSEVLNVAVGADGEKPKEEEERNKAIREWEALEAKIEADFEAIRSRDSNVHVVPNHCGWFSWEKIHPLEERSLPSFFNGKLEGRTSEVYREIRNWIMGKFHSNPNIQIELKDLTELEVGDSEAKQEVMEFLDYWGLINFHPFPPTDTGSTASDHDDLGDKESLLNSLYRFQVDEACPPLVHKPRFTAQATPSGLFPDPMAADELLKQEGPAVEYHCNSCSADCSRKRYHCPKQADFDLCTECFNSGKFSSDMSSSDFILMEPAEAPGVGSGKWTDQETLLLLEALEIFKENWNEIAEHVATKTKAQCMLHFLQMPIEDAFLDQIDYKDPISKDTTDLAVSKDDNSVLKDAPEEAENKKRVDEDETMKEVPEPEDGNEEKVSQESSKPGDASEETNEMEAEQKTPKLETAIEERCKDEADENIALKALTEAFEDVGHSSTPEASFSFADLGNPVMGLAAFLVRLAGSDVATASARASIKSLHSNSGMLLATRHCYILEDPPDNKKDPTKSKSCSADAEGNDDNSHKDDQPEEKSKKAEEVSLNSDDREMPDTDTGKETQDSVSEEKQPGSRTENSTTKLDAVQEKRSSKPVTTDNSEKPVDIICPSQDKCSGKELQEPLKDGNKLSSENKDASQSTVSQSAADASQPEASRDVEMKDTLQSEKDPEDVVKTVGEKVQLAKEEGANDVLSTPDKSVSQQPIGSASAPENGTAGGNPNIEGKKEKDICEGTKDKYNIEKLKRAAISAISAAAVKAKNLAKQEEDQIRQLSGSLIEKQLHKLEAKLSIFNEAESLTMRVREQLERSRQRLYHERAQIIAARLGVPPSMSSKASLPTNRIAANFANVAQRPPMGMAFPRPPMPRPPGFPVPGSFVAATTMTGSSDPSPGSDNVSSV

[2] = biological target: SWP73B-YFPHA (Arabidopsis thaliana) (UniProt Q9FMT4)
[3] = biological target: SWP73A-YFPHA (Arabidopsis thaliana) (UniProt F4JBZ1)
[4] = biological target: T1, SWI3D-YFPHA (Arabidopsis thaliana); remark: listed apart in the source

Molecule: SYS1
- binding [1]: binds

Molecule: BCL7B
- binding [1]: binds

Molecule: SYS2
- binding [1]: binds

Molecule: SYS3
- binding [1]: binds

B2: ARP7 (protein, UniProt Q8L4Y5 1-363)
chain: MEALVVDAGSKFLKAGAAIPDQSPAMIIPSQMKRMVDDGSSSADNPTTVFEDVTLDPIERGLIRDWDAMEDLLRYVVYTGLGWEEGNEGNILFTDPLCTPKAIREQLVQLMFETFNVSGFYASEQAVLSLYAVGRISGCTVDIGHGKIDIAPVLEGAVQHIASKRFELGGTELTKLFAQELGKTNPSMNLSMSDVEKLKEQYANCAEDEIAYKKTQNCEIEQHTLPDGQVISIGRERYSVGEALFQPSILGLEEHGIVEQLVRIISTVSSENHRQLLENTVLCGGTTSMTGFESRFQKEANLCSSAIRPTLVKPPEYMPENLGMYSAWVGGAILAKVVFPQNQHVTKADYDETGPSVVHRKCF
- binding [4]: binds
- binding [2]: binds
- binding [3]: binds

B3: ARP4 (protein, UniProt Q84M92 1-441)
chain: MYGGDEVSAIVVDLGSHTCKAGYAGEDAPKAVFPSVIGAVDGVEAMDVDVDSTKTNSNSEDSKTESEKEKSKRKLYVGSQAMSYRRDHMEVLSPIKDGIVSDWDLVDNIWEHAFKSCLMIDPTEHPMLLAEPPLNTQQQREKAAELMFEKYKVPALFMAKNPVLTSFATGRATSLVVDCGGGSTTISPVHDGYVLQKAVVSSPLGGEFLTDCLLKSLESKGIKIRPRYSFKRKEVRAGEFQVEDVDIPDTTESYKLFCQRMIVGDIKDSICRVPDTPYDDKSYSNIPTTSYELPDGQTLEIGADRFKVPDVMFNPSIVQTIPGMEKYAEMIPSVRGLPHMVMESINKCDVDIRRELYSSILLAGGTSSMQQLKERLEKDLIEESPHSARVKVLASGNTTERRFSVWIGGSILASLGSFQQMWFSKSEYEEHGASYIQRKCP
- binding [4]: binds
- binding [2]: binds
- binding [3]: binds

B4: SWI3D (endogenous) (protein, UniProt Q8VY05 1-985)
chain: T1 sequence
- binding [2]: binds

Next, values leading:

- binding [1]: binds
Molecule: BCL7A

- binding [1]: no binding
Molecule: SWP73A (endogenous)

- binding [2]: binds
- binding [3]: binds
B1: SWI3C (protein, UniProt Q9XI07 1-807)
chain: MPASEDRRGKWKRKKRGGLSAARKPKQEEEDMEEEDEENNNNNNEEMDDVENADELQQNGGATPDPGLGIGEVVEDSGSRISDFPAVVKRVVIRPHASVMAVVAAERAGLIGETRGQGSLPALENISFGQLQALSTVPADSLDLERSDGSSSAYVISPPPIMDGEGVVKRFGDLVHVLPMHSDWFAPNTVDRLERQVVPQFFSGKSPNHTPESYMEFRNAIVSKYVENPEKTLTISDCQGLVDGVDIEDFARVFRFLDHWGIINYCATAQSHPGPLRDVSDVREDTNGEVNVPSAALTSIDSLIKFDKPNCRHKGGEVYSSLPSLDGDSPDLDIRIREHLCDSHCNHCSRPLPTVYFQSQKKGDILLCCDCFHHGRFVVGHSCLDFVRVDPMKFYGDQDGDNWTDQETLLLLEAVELYNENWVQIADHVGSKSKAQCILHFLRLPVEDGLLDNVEVSGVTNTENPTNGYDHKGTDSNGDLPGYSEQGSDTEIKLPFVKSPNPVMALVAFLASAVGPRVAASCAHESLSVLSEDDRMKSEGMQGKEASLLDGENQQQDGAHKTSSQNGAEAQTPLPQDKVMAAFRAGLSAAATKAKLFADHEEREIQRLSANIVNHQLKRMELKLKQFAEIETLLMKECEQVEKTRQRFSAERARMLSARFGSPGGISPQTNNLQGMSLSTGGNNINSLMHQQHQQQQASATSQPSIIPGFSNNPQVQAQMHFMARQQQQQQQQQQQQQQAFSFGPRLPLNAIQTNAGSTASPNVMFGNNQLNNPAAAGAASINQPSFSHPMVRSSTGSGSGSGLGLN

- binding [2]: binds
B5: MINU2 (protein, UniProt F4K128 1-1064)
chain: MVKQLQEQEENDPVEKTKSLISALNYLSRDLLLPSHLYASVSSIYHASVSDLSPSPPLRGNSYTPNRGDLMSEFEDALLQQRLNYESGSRLAELKETRYKNRIHNRLSQLEGLPSNRGEDLQEKCLLELYGLKLQELQCRVRGEVSAEYWLRLNCADPERQLYDWGMMRLPRRMYGVGDSFVMEADDQFRNKRDAERLLRLEEEEKNLIETTQRKFFAEVLNAVREFQLQIQASHRRCKQRNDGVQAWHGKQRQRATRAEKLRIMALKSDDQEEYMKLAKESKNEKLTLFLEETNKIFVSLGAAVQRQKDAKLSENTKLLKGSESDLSDVDAPEDVLPAQDIEIIDSDNNDDSNDLLEGERQFNLAIHSIQEKVTKQPSLLQGGELRSYQLEGLQWMVSLYNNDYNGILADEMGLGKTIQTIALIAYLLESKDLHGPHLILAPKAVLPNWENEFALWAPSISAFLYDGSKEKRTEIRARIAGGKFNVLITHYDLIMRDKAFLKKIDWNYMIVDEGHRLKNHECALAKTLGTGYRIKRRLLLTGTPIQNSLQELWSLLNFLLPHIFNSIHNFEEWFNTPFAECGSASLTDEEELLIINRLHHVIRPFLLRRKKSEVEKFLPGKTQVILKCDMSAWQKLYYKQVTDVGRVGLHSGNGKSKSLQNLTMQLRKCCNHPYLFVGADYNMCKKPEIVRASGKFELLDRLLPKLKKAGHRILLFSQMTRLIDLLEIYLSLNDYMYLRLDGSTKTDQRGILLKQFNEPDSPYFMFLLSTRAGGLGLNLQTADTIIIFDSDWNPQMDQQAEDRAHRIGQKKEVRVFVLVSIGSIEEVILERAKQKMGIDAKVIQAGLFNTTSTAQDRREMLEEIMSKGTSSLGEDVPSEREINRLAARTEEEFWMFEQMDEERRKKENYKTRLMEEKEVPEWAYTSETQEDKTNAKNHFGSLTGKRKRKEAVYSDSLSDLQWMKAMESEDEDASKVSQKRKRTDTKTRMSNGSKAEAVLSESDEEKEEEEEERKEESGKESEEENEKPLHSWKTNKKKRSRYPVMTSSPNSRGKGSSKGSKRN

- binding [4]: binds
B6: LFR (protein, UniProt Q9LS90 1-460)
chain: MQKRELGKSGGNSGGSSGPPAKRGRPFGSTSANSAAAAAAAAAADAMSPSALLGPSLLVHNSFVEQNNRRIVLALQSGLKSEVTWALNTLTLLSFKEKEDIRRDVMPLAKIAGLLDALLLIIDDWRDIALPKDLTRGTRVRTLGTNASVTGFGNEYDALASIQPPGSGIGSSAAEALGKKSTGKHQSSQWWMEEDGLFNLDDEGRSEKQMCAIAASNVIRNFSFMPDNEVVMAQHRHCLETVFQCIHDHMTEDEELVTNSLETIVNLAHLMDLRIFSSLKQSYININEKKAVQAVVGILNSSVKAWNCAAAELLGRLIINPDNEPFISPLIPQIHKRLIDLLSIQAVDAQAAAVGALYNLVEVNMDCRLKLASERWAVDRLLKVIKTPHPVPEVCRKAAMILENLVSEPQNRGLLLAYENAFAELLFQEGKYSDSFARILYELTARSNSRVASARGIWGM

Where two headings read alike, the source gives them in different places. Results are given in words; binding and its absence hold for the method and conditions named. Binding seen in cells or lysates may run through a third protein. A yes stands for co-enrichment or nearness to the bait. Other partners may have been found. For some assays here: A no says only that the protein was not detected with the bait. One block for each molecule: values may come before it.
